Measurements from PubChem BioAssay AID2685 (National Center for Advancing Translational Sciences (NCATS), 2010).
This is one part of the list. Further columns of the screen follow, without active or inactive calls. Compounds called inactive in the main read-out are mostly missing here. Potencies come from curve fits of mixed quality, noted in brackets.

Assay: qHTS Assay for Lipid Storage Modulators in Drosophila S3 Cells;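 for cell number change: cells counted by Cell Tracker Red CMTPX staining in the red channel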
Conditions: BODIPY lipid droplet fluorescence, 18-24 h; for cell number change: measured here: cell count max response, cells fed with added oleic acid
Procedure, shortened: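 Laser-scanning cytometry quantifies lipid droplet accumulation (500–530 nm total intensity; droplet/cell object ratio) in oleic acid-fed (400 uM added) Drosophila S3 cells treated with a concentration series. 20 uM Triacsin C defined 100% inhibition.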

[1] = measured here: lipid fluorescence (Fed channel) AC50, cells fed with added oleic acid
[2] = measured here: cell number channel AC50, cells fed with added oleic acid

Cc1ccc(S(=O)(=O)NCCNc2ccc([N+](=O)[O-])cc2)cc1
AC50 [1]: 6.51 µM [falling, single point]

CCOc1ccc(S(=O)(=O)N2CCC(C(=O)NCC(=O)Nc3cccc(Cl)c3C)CC2)cc1
cell number change: 40.6% | AC50 [2]: 16.4 µM [rising, single point]

O=C(CCCC(=O)N(CC(=O)NC1CCCC1)c1cccc(F)c1)Nc1ccccn1
cell number change: 25.7% | AC50 [1]: 0.58 µM [rising, single point]

NC(=O)c1ccc(NC(=O)COC(=O)C2(c3ccccc3F)CCCC2)cc1
AC50 [1]: 0.58 µM [falling, single point]

CCN(Cc1nc2cc(Cl)ccc2c(=O)[nH]1)C(=O)COc1ccccc1Cc1ccccc1
cell number change: -37.4% | AC50 [2]: 20.6 µM [falling, single point]

COc1ccc(CNC(=O)c2cc(=O)c3c(C)cc(C)cc3o2)cc1
cell number change: 7.01% | AC50 [1]: 3.66 µM [rising, partial curve, poor fit]

COc1ccccc1NS(=O)(=O)c1ccc(NN=C2CCCC2)c([N+](=O)[O-])c1
cell number change: -42.2% | AC50 [2]: 20.6 µM [falling, single point] | AC50 [1]: 18.4 µM [falling, single point]

CCCCN1C(=O)c2ccc(C(=O)OCC(=O)N3CCN(c4ccccc4)CC3)cc2C1=O
cell number change: 8.64%

ONC(=Nc1ccc(Cl)cc1)c1ccccc1Cl
cell number change: -76.7% | AC50 [2]: 16.4 µM [falling, partial curve, poor fit]

O=C(NCc1ccc(Cl)cc1Cl)c1ccccn1
AC50 [1]: 0.58 µM [rising, single point]

CCN1CCN(c2ncc(C(=O)Nc3cc(Cl)c(OC)cc3OC)c3ccccc23)CC1
cell number change: 14.6% | AC50 [2]: 0.0291 µM [rising, full curve, poor fit] | AC50 [1]: 0.206 µM [rising, partial curve]

N/C(CC(=O)NC1CCCCC1)=N\OCC(=O)Nc1ccc(Cl)c(Cl)c1
cell number change: 0.44%

O=[N+]([O-])c1ccc(Oc2c(F)c(F)nc(N3CCCC3)c2F)cc1
cell number change: -0.0379% | AC50 [1]: 16.4 µM [rising, partial curve]

COc1ccccc1N1CCN(/N=C\C(Br)=C\c2ccccc2)CC1
cell number change: -7.32%

Cc1ccccc1NC(=S)N1CCC(NC(=O)c2ccco2)CC1
cell number change: -77.4% | AC50 [2]: 13 µM [falling, partial curve] | AC50 [1]: 9.2 µM [falling, partial curve]

C=C1c2cc(C)ccc2NC(=O)N1c1ccc(C)cc1
cell number change: 63.4% | AC50 [2]: 5.8 µM [rising, partial curve]

CN(C)CC/C=C1/c2cc(F)ccc2CSc2ccc(F)cc21
cell number change: -16.5%

CC(C)(C)OC(=O)NCCCC(CCCNC(=O)OC(C)(C)C)C(=O)O
AC50 [1]: 18.4 µM [falling, partial curve]

CCN(CC(=O)NC(=O)NC1CCCCC1)Cc1nc2ccccc2c(=O)[nH]1
cell number change: 34.4% | AC50 [2]: 0.231 µM [rising, full curve] | AC50 [1]: 0.92 µM [rising, full curve]

CC(=O)c1ccc(NC(=O)COC(=O)c2ccccc2N=Nc2ccc(N(C)C)cc2)cc1
AC50 [1]: 6.51 µM [falling, single point]

Cc1nc2ccccc2c(=O)n1/N=C/c1cccnc1
cell number change: 58.1% | AC50 [2]: 4.11 µM [rising, partial curve] | AC50 [1]: 2.31 µM [rising, partial curve]

Cc1nn(C)cc1/C=N/NC(=O)c1ccc2c(c1)OCO2
cell number change: -22.6% | AC50 [1]: 20.6 µM [falling, single point]

C[C@@H](C(=O)NCC1CCCO1)N1C(=O)N2CCc3c([nH]c4ccccc34)[C@@]2(C)C1=O (stereo partly drawn)
cell number change: -9.7%

O=C(Nc1ccccc1)N1CCCN(c2ccc(C(F)(F)F)cc2[N+](=O)[O-])CC1
cell number change: 8.86% | AC50 [1]: 3.26 µM [rising, single point]

CC(C)NC(=O)COC(=O)c1ccccc1CSC1=NCCS1
cell number change: 6.3%

CSc1ccc(C(=O)C2CCCN(C(=O)c3ccsc3)C2)cc1 (stereo not drawn)
cell number change: -20.5% | AC50 [1]: 13 µM [falling, partial curve]

COc1cccc(CNC(=O)N2CCN(c3ccccc3Cl)CC2)c1
cell number change: 24.6% | AC50 [1]: 29.1 µM [rising, single point]

COc1ccc(OC)c(NC(=O)CSc2n[nH]c(-c3cccnc3)n2)c1
cell number change: -9.52% | AC50 [1]: 0.231 µM [rising, full curve, poor fit]

COc1ccc(C(=O)Nc2nccs2)cc1
cell number change: -2.19%

O=C(O)C1C2CCC(C2)C1C(=O)NCCC1=CCCCC1 (stereo not drawn)
cell number change: 18.9% | AC50 [1]: 29.1 µM [rising, single point]

COc1ccc(S(=O)(=O)N2CCN(S(=O)(=O)c3c(F)cccc3F)CC2)cc1
cell number change: 36%

O=C(COC(=O)/C=C/c1ccccc1)NCCNC(=O)COC(=O)/C=C/c1ccccc1
cell number change: 2.64% | AC50 [1]: 6.51 µM [falling, single point]

COC(=O)C1=C(C)N(CCCC(=O)O)C(=O)NC1c1cc2c(cc1[N+](=O)[O-])OCO2 (stereo not drawn)
AC50 [1]: 1.64 µM [rising, partial curve]

Cc1cc(OCc2nn[nH]n2)c2c(C)c(Cc3ccccc3)c(=O)oc2c1
cell number change: 15.7%

C=Cc1ccc(Cn2nc(-c3ccc(C)cc3)ccc2=O)cc1
cell number change: -14.2% | AC50 [1]: 29.1 µM [falling, single point]

COc1ccccc1NS(=O)(=O)c1ccc(/C=C/C(=O)N2CCN(C(C)=O)CC2)cc1
cell number change: 10.4% | AC50 [1]: 10.3 µM [falling, partial curve]

O=C(CCc1nnc2ccc(N3CCCCC3)nn12)NCC1CCN(Cc2ccc(F)cc2)CC1
cell number change: 6.11% | AC50 [1]: 29.1 µM [falling, single point]

CCc1ccc(NC(=O)CCn2cccc2)cc1
AC50 [2]: 2.31 µM [falling, partial curve]

Cc1cccc2cc(C(c3nnnn3CC3CCCO3)N3CCOCC3)c(=O)[nH]c12 (stereo not drawn)
cell number change: -2.77% | AC50 [1]: 0.58 µM [falling, single point]

CC1CCC(C(C)C)C(OC(=O)CSc2nccc(=O)[nH]2)C1 (stereo not drawn)
cell number change: -82.6% | AC50 [2]: 23.1 µM [falling, partial curve]

CCOc1ccccc1NC(=O)/C=C/c1ccccc1[N+](=O)[O-]
cell number change: -34.4% | AC50 [2]: 32.6 µM [falling, single point] | AC50 [1]: 18.4 µM [rising, single point]

CCn1c(SCC(=O)NCCc2ccc(OC)c(OC)c2)nc2c1c(=O)n(C)c(=O)n2C
cell number change: 10.3% | AC50 [2]: 0.146 µM [falling, single point]

COC(=O)c1ccc(NC(=O)CSCc2ccccc2C)cc1
cell number change: -1.52% | AC50 [1]: 0.651 µM [falling, single point]

CCOC(=O)C1CCN(Cc2oc(CO)cc(=O)c2O)CC1
cell number change: -20.6% | AC50 [2]: 0.461 µM [falling, full curve, poor fit]

Cc1nc(NC(=O)c2cc3ccccc3o2)ccc1Br
cell number change: -31.7% | AC50 [2]: 0.326 µM [falling, full curve, poor fit]

COc1ccc(NC(=O)C2C3C=CC4(O3)C2C(=O)N(CCCN2CCCC(C)C2)C4C(=O)NC2CCCCC2)cc1 (stereo not drawn)
cell number change: -7.62% | AC50 [1]: 18.4 µM [rising, partial curve]

CC[C@@H](C)[C@H](NC(=O)Cc1c(C)c2cc3c(C)coc3c(C)c2oc1=O)C(=O)O
cell number change: 39% | AC50 [2]: 23.1 µM [rising, partial curve]

COCCCNC(=O)c1cc2c(-c3ccc(Cl)cc3)nn(C)c2s1
AC50 [2]: 3.26 µM [rising, partial curve]

COc1ccc(NC(=O)CS(=O)(=O)Cc2nc(-c3ccc(C)cc3)oc2C)cc1
cell number change: 179% | AC50 [2]: 20.6 µM [rising, single point] | AC50 [1]: 0.00461 µM [falling, full curve, poor fit]

Cc1noc(NS(=O)(=O)c2ccc(NC(=O)CSc3ncccn3)cc2)c1C
cell number change: -54.8% | AC50 [2]: 32.6 µM [falling, single point] | AC50 [1]: 32.6 µM [falling, partial curve]

Cc1ccc(C(=O)Nc2ccccc2C(=O)NC(CC(=O)O)C(=O)O)cc1 (stereo not drawn)
cell number change: 11.7%

Cc1ccc(S(=O)(=O)N2CCOCC2)cc1NC(=O)CSc1nnnn1C1CCCC1
cell number change: 1.94% | AC50 [1]: 2.59 µM [rising, single point]

C=CCn1c(C)cc(C(=O)COc2ccc(C)nc2[N+](=O)[O-])c1C
cell number change: -37.7% | AC50 [2]: 29.1 µM [falling, single point]

O=C(/C=C/c1ccccc1Cl)NCc1ccco1
cell number change: -24.3% | AC50 [1]: 29.1 µM [falling, single point]

COC(=O)c1c(C(=O)OC)c2ccccn2c1C(=O)c1ccccc1
cell number change: 4.11% | AC50 [1]: 0.731 µM [falling, full curve]

Cc1nc(N)sc1N=Nc1ccc(F)cc1
cell number change: -7.03%

O=C(NC1CCCCC1)C1CCCN(c2nnnn2-c2ccccc2)C1 (stereo not drawn)
cell number change: 25.9% | AC50 [1]: 13 µM [rising, partial curve]

COc1ccc(NS(=O)(=O)c2cccc(C(=O)N/N=C/c3cn(-c4ccccc4)nc3-c3ccc(OC)cc3)c2)cc1
cell number change: 18.9% | AC50 [1]: 0.164 µM [rising, full curve, poor fit]

CC(C)(C)c1cnnn1-c1ccc([N+](=O)[O-])cc1
cell number change: 0.947% | AC50 [1]: 0.651 µM [falling, single point]

O=c1c2ccccc2oc2cc(NCCCN3CCOCC3)ccc12
cell number change: 23.3% | AC50 [1]: 29.1 µM [rising, single point]

Cc1ccc(C)c(N2CCN(C(=O)Cc3ccc(NC4=NC5CS(=O)(=O)CC5S4)cc3)CC2)c1 (stereo not drawn)
cell number change: -9.8%

CCn1c(SCC(=O)Nc2cc(C)on2)nc2sc3c(c2c1=O)CCCC3
cell number change: -60.7% | AC50 [2]: 7.31 µM [falling, partial curve] | AC50 [1]: 5.8 µM [falling, partial curve]
